The values that follow come from PubChem BioAssay AID1487 (National Center for Advancing Translational Sciences (NCATS), 2009).

A short description of this test: qHTS Assay for Modulators of Lamin A Splicing. Particulars: HeLa LMNA splicing GFP/RFP minigene ratio, 48 h. The method in brief:
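Read-out is the ratio of GFP to DsRed2 object intensity, acquired by 488 nm laser-scanning cytometry on HeLa lamin A-EGFP minigene reporter cells. Compound incubation 48 hrs at 37 °C in Opti-MEM with 2% FBS; DMSO 0.5% final.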
(qHTS replaces the single test concentration by a dilution series.)

The mark [1] stands for this setting: measured here: GFP splicing reporter channel.
Setting [2] is: measured here: RFP viability control channel.

Several values for one entry are separate records, joined by “and”; a condition that tells them apart may be missing. Equal entries are not always repeated. Some of the results follow. Further columns of the screen follow, without active or inactive calls. Most of these compounds were active or inconclusive in the main read-out, so they are no random draw. Words in brackets tell the shape of the fitted curve; partial curves, single points and poor fits give uncertain potencies.

The term AC50 denotes the concentration giving half of the maximal activity seen. As to `O=S(=O)(c1ccc(NC(=S)NCCc2ccccc2)cc1)N1CCOCC1`, the AC50 under setting [1] is 0.794 µM [rising, partial curve, poor fit] and the AC50 under setting [2] is 0.501 µM [rising, partial curve].

As to `COc1ccc(/C=N/NC(=O)CN(Cc2ccccc2)S(=O)(=O)c2ccc3c(c2)OCCO3)cc1`, the AC50 under setting [2] was 31.6 µM [rising, single point].

With `CC(C)CNC(=O)COC(=O)c1c2c(nc3ccccc13)/C(=C/c1cccs1)CC2`, the concentration at half-maximal activity (AC50) under setting [2] was 2.51 µM [rising, partial curve].

For `COC(=O)CC1c2ccccc2C=C(/C=C/c2ccc3c(c2)OCO3)N1C(=O)OC` (stereo not given), the AC50 reads like this: under setting [1], 0.00355 µM [rising, full curve, poor fit]; under setting [2], 0.00251 µM [rising, full curve, poor fit].

Regarding `O=C(CCc1nnc(CCCCc2ccccc2)o1)NCCN1CCOC1=O`, the half-maximal activity concentration (AC50) under setting [1] is 35.5 µM [falling, single point] and the concentration at half-maximal activity (AC50) under setting [2] was 35.5 µM [falling, single point].

Take `CCSC(N)=Nc1ccc(C(F)(F)F)cc1`: under setting [2], the AC50 is 0.02 µM [rising, full curve, poor fit].

Turning to `COc1ccccc1CNc1ncnc2c1cnn2-c1ccc(C)cc1`, the AC50 under setting [2] was 15.8 µM [rising, single point].

For the compound `O=C1NC(=S)/C(=C\c2ccc(-c3ccccc3Cl)o2)S1`, the AC50 under setting [1] is 35.5 µM [falling, single point].

Consider `COc1ccccc1C(=O)N1c2ccccc2Sc2ccccc21`, for which the AC50 is 22.4 µM [rising, single point] under setting [1] and 35.5 µM [rising, single point] under setting [2].

`Cc1ccc(-n2nc(C)c3c(C)cc(=O)n(CC(=O)Nc4cccc(C)c4C)c32)cc1`: under setting [1], the AC50 was 5.01 µM [rising, partial curve].

As for `Cn1c(Cn2c(=O)sc3ccccc32)nnc1SCc1ccccc1`, the AC50 by setting is: under setting [1], 31.6 µM [rising, single point]; under setting [2], 35.5 µM [rising, single point].

For the compound `CC[C@@H]1Cc2cc(O)ccc2C2=C1c1ccc(O)cc1C[C@H]2CC`, the AC50 runs as follows: under setting [1], 20 µM [falling, partial curve]; under setting [2], 20 µM [falling, partial curve, poor fit].

As to `CCCS(=O)(=O)c1c(S(=O)(=O)CCC)c2c(N)cccn2c1C(=O)c1ccc(OC)cc1`, the AC50 under setting [1] was 0.562 µM [falling, full curve, poor fit] and the AC50 under setting [2] is 0.0316 µM [falling, full curve, poor fit].

Consider `CCN(CC)S(=O)(=O)c1ccc(N2CCN(S(=O)(=O)c3ccc4c(c3)OCCO4)CC2)nc1`, for which the AC50 under setting [2] is 14.1 µM [rising, single point].

For the compound `Cc1ccc(OCC(=O)Nn2c(C)nc3ccccc3c2=O)c(C(C)C)c1`, the AC50 under setting [1] was 2.82 µM [rising, full curve] and the AC50 under setting [2] was 7.08 µM [rising, partial curve].

Turning to `C=CCn1c(C)cc(C(=O)CN2NS(=O)(=O)c3ccccc3C2=O)c1C`, under setting [2], the AC50 was 1.12 µM [falling, full curve, poor fit].

As for `Cc1ccc(OCCSc2ncnc3nc[nH]c23)cc1`, the AC50 under setting [2] was 22.4 µM [rising, single point].

With `COc1ccccc1C(=O)N1CCN(c2cccc(C(F)(F)F)c2)CC1`, under setting [2], the AC50 is 15.8 µM [rising, partial curve, poor fit].

Consider `Cc1cc(C)c2cc(CN(Cc3nnnn3Cc3ccc(F)cc3)C3CCCC3)c(=O)[nH]c2c1`, for which the AC50 is 3.55 µM [falling, partial curve, poor fit] under setting [1] and 20 µM [falling, partial curve, poor fit] under setting [2].

For `Cc1ccc2nc(NC(=O)CSc3nccn3Cc3ccc(F)cc3)sc2c1`, the AC50 under setting [1] was 0.0355 µM [rising, full curve, poor fit].

In the case of `O=C(COc1ccccc1F)Nc1ccc(S(=O)(=O)NCc2ccco2)cc1`, the AC50 reads like this: under setting [1], 31.6 µM [rising, single point]; under setting [2], 35.5 µM [rising, single point].

With `Cc1nc2ncccn2c1-c1csc(NCc2ccco2)n1`, the AC50 under setting [2] was 25.1 µM [rising, single point].

In the case of `COc1ccc(/C=N\NC(=O)c2ccc(Cn3cc(Br)c([N+](=O)[O-])n3)o2)c(OC)c1C`, the concentration at half-maximal activity (AC50) under setting [2] is 2.51 µM [falling, partial curve, poor fit].

`CC(=O)Nc1sc(NC(=O)c2ccc(Cl)cc2)nc1-c1cccs1`: the concentration at half-maximal activity (AC50) under setting [1] is 14.1 µM [rising, partial curve].

As to `CCSC1=C(C#N)C2(CCCCC2)C2=C(CC(C)(C)CC2=O)N1`, under setting [1], the AC50 is 1.41 µM [rising, full curve, poor fit].

Turning to `CCNc1nc(Oc2ccc(OC)cc2)cc(C(F)(F)F)n1`, the AC50 under setting [1] is 7.94 µM [rising, partial curve, poor fit].

Turning to `Cc1cc(NC(=O)CS(=O)(=O)c2cn(Cc3cccc(F)c3)c3ccccc23)no1`, the AC50 under setting [2] was 35.5 µM [rising, single point].

For `CCOC(=O)c1ccc(NC(=O)CCc2nc(-c3ccccc3)no2)cc1`, under setting [2], the AC50 was 31.6 µM [rising, partial curve].

In the case of `Cc1[nH]c2ccccc2c1C(=O)CN1C(=O)NC(C)(c2ccc(Cl)cc2Cl)C1=O` (stereo not given), the AC50 under setting [2] was 35.5 µM [rising, single point].

On to `COc1cccc(N2CCN(C(=O)CN3CCSc4ccccc43)CC2)c1`, for which the AC50 under setting [1] was 0.0316 µM [rising, full curve, poor fit].

Take `COc1cc(C(=O)Nc2ccc(-c3nc4cc(C)ccc4o3)c(O)c2)cc(OC)c1OC`: the AC50 under setting [1] is 14.1 µM [falling, partial curve].

On to `O=C(c1ccncc1)N1CCN(C(=O)c2cccc3ccccc23)CC1`, for which the AC50 by setting is: under setting [1], 5.62 µM [rising, single point]; under setting [2], 5.62 µM [rising, single point].

Turning to `COc1ccc2cc3[n+](cc2c1OC)CCc1cc2c(cc1-3)OCO2`, the AC50 was 2.82 µM [falling, full curve] and 3.55 µM [rising, single point] under setting [1]; 11.2 µM [rising, single point] and 7.08 µM [rising, partial curve] under setting [2].

As for `Cc1ccccc1CCNC(=O)c1ccc2c(c1)nc1n2CCCCC1`, under setting [2], the AC50 is 20 µM [rising, single point].

Consider `COc1cc(N2CCCC2)c(OC)cc1/C=C(/C#N)c1ccc(F)cc1`, for which the AC50 is, setting by setting: under setting [1], 25.1 µM [rising, partial curve, poor fit]; under setting [2], 35.5 µM [rising, single point].

Consider `CCCCOc1ccc(-c2cc(C(F)(F)F)c(C#N)c(SCC(=O)O)n2)cc1`, for which the AC50 was 22.4 µM [rising, single point] under setting [1] and 31.6 µM [rising, single point] under setting [2].

As to `Cc1c(Cl)cccc1N/C(SCC(=O)N1CCCCCC1)=C(/C#N)c1nc2ccccc2s1`, the AC50 is, setting by setting: under setting [1], 6.31 µM [rising, partial curve]; under setting [2], 11.2 µM [rising, partial curve].

Take `COC(=O)c1ccccc1NC(=O)CSc1nc(C)c(Cl)c(C)c1C#N`: under setting [1], the AC50 is 35.5 µM [falling, single point].

In the case of `COc1ccc(-c2cc(=O)c3ccccc3[nH]2)cc1`, the AC50 under setting [2] was 1 µM [rising, partial curve].

With `O=C(Nc1cccc(F)c1)N1CC=C(n2c(=O)[nH]c3ccccc32)CC1`, the AC50 under setting [2] is 31.6 µM [rising, single point].

With `COc1ccc(-c2noc(Cc3ccccc3OC)n2)cc1`, the AC50 under setting [2] is 35.5 µM [rising, single point].

With `C=CCOC(=O)c1sc(NC(=O)c2ccco2)nc1C`, the AC50 reads like this: under setting [1], 7.94 µM [rising, partial curve]; under setting [2], 14.1 µM [rising, partial curve].

For the compound `COc1cccc(-c2cc(C(=O)Nc3cc(C)n(Cc4ccc(Cl)cc4)n3)no2)c1`, under setting [2], the half-maximal activity concentration (AC50) was 2.51 µM [rising, single point].

`COc1ccccc1NC(=O)Cn1nc(-c2ccc(Cl)cc2)c2ccccc2c1=O`: the AC50 under setting [1] was 2 µM [rising, partial curve].

In the case of `COc1ccc(-c2cc(-c3ccccc3)c(C#N)c(S(C)=O)n2)cc1` (stereo not given), the half-maximal activity concentration (AC50) under setting [1] was 35.5 µM [falling, single point].

For `O=C(Nc1ccccc1)c1cc(S(=O)(=O)N2CCOCC2)cs1`, the AC50 under setting [2] is 12.6 µM [rising, single point].

In the case of `Cc1ccccc1Cn1c2ccccc2c2cn[nH]c(=O)c21`, the AC50 under setting [1] is 20 µM [rising, partial curve, poor fit] and the half-maximal activity concentration (AC50) under setting [2] is 14.1 µM [rising, single point].

`O=C(COC(=O)c1ccccc1NCc1ccco1)Nc1ccc2c(c1)OCO2`: the AC50 under setting [2] is 0.01 µM [falling, full curve, poor fit].

Take `c1ccc2[nH]c(CSc3nc4ccccc4s3)nc2c1`: the AC50 under setting [2] was 12.6 µM [rising, partial curve].

Regarding `COc1ccc(-c2nc(CCNC(=O)c3ccc(Br)o3)cs2)cc1`, under setting [2], the concentration at half-maximal activity (AC50) was 14.1 µM [rising, partial curve].

Regarding `O=C(NCCC1=CCCCC1)C1CCN(S(=O)(=O)c2ccc(-n3cnnn3)cc2)CC1`, the AC50 was 12.6 µM [rising, single point] under setting [1] and 15.8 µM [rising, single point] under setting [2].

Turning to `COC(=O)c1cnn(-c2cc(Oc3cccc(C)c3)ncn2)c1N`, under setting [2], the AC50 was 25.1 µM [rising, single point].

Regarding `CN(C)CCCN1C(=O)CSC1c1ccc([N+](=O)[O-])cc1` (stereo not given), the AC50 under setting [1] is 28.2 µM [rising, single point].

In the case of `Fc1ccc(NC(=S)NCCc2ccc(Cl)cc2)cc1`, under setting [2], the AC50 was 12.6 µM [rising, single point].

As for `O=C(Cc1ccccc1)N/N=C/c1ccccc1Cl`, the AC50 under setting [2] is 17.8 µM [rising, partial curve, poor fit].

For the compound `Cc1ccc(Nc2sc(C(=O)c3ccccc3)c(N)c2C(N)=O)cc1`, the AC50 was 20 µM [rising, single point] under setting [1] and 14.1 µM [rising, single point] under setting [2].
